# Some of the results follow.
# Biological target: T1, OsSMF1 (Oryza sativa, UniProt Q6ZLB0 1-436)
# T1 sequence: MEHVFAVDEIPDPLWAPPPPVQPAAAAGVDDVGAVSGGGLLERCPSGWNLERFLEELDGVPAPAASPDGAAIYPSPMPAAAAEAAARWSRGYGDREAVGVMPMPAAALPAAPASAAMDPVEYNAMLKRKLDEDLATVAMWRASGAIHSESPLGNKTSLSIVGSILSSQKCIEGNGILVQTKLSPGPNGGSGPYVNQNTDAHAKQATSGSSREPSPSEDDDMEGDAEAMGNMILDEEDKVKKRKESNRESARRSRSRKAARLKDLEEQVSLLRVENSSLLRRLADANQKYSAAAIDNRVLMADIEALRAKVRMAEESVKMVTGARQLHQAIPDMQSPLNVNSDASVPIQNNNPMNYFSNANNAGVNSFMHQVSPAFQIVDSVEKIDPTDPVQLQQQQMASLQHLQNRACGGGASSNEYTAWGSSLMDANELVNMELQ
# Assay: protein-binding microarray (RPBM); PBS, 2% BSA, 51.3 ng/ul salmon testes DNA, 50 uM zinc acetate, 200 nM TF, 25 C, 1 h; high values mean tight binding
# Details: protein: recombinant; tags: N-terminal polyhistidine and DsRed monomer fusion (pET32a); chain copies: 2; label: CyDye5-dUTP incorporated in the synthesized complementary strand; 3' TTTTT single-stranded linker to array surface; dsDNA, one strand shown
# Outline: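 In PBS with 2% BSA, salmon testes DNA and 50 µM zinc acetate, 200 nM protein was incubated on a custom Agilent array at 25 °C for 1 h and then washed off. The array had been made double-stranded by primer extension with Cy5-dUTP and blocked with 2% BSA. The proteins were transcription factors fused N-terminally to polyhistidine and DsRed, expressed in E. coli BL21-CodonPlus and purified on Ni–NTA. The binding signal is per-feature fluorescence intensity (arbitrary units) from an Axon 4000B scanner.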
row,Sequence,binding signal
1,TCTGGTGCAGGGGCGAACGCGATTAGCCATGATGTAGCGTCGGAGTCACCTAGTGCAG,27900 fluorescence intensity (a.u.)
2,GCCGGCACGCTGTACAGGGACGTGGCGTCGCCGTGGCCGACGGAGTCACCTAGTGCAG,7810 fluorescence intensity (a.u.)
3,CGACCGGATTAATCAGCAGGGGATCTGGGATTATTATTACCGGAGTCACCTAGTGCAG,3640 fluorescence intensity (a.u.)
4,ACTTAACCGCAACGTCATCTACCAGAATCTTTCAACTCGACGGAGTCACCTAGTGCAG,6180 fluorescence intensity (a.u.)
5,ATCGAAACGATGACACATGCTCTCGTCAGCCATGGAGATGCGGAGTCACCTAGTGCAG,7940 fluorescence intensity (a.u.)
6,AACCAAATCTCCACGCCCTCAAATCCAACAAGCACGAGCTCGGAGTCACCTAGTGCAG,3140 fluorescence intensity (a.u.)
7,AAGTAAGTTGGCGCTGACCTTGGCTACTTAGAGCCCGGCCCGGAGTCACCTAGTGCAG,3960 fluorescence intensity (a.u.)
8,AGGAGGAGAAGAAGGTTCTGGAAGCTTCTGGACGGCCCCACGGAGTCACCTAGTGCAG,25200 fluorescence intensity (a.u.)
9,CTGCAGTGGAGTTGTGGAGCTATCTAAACCCAGCTCCACACGGAGTCACCTAGTGCAG,3220 fluorescence intensity (a.u.)
10,AGCAACGTAGCTCAAACGTTGGTCAATCCATGTGCAATTACGGAGTCACCTAGTGCAG,3150 fluorescence intensity (a.u.)
11,TCGCCGGCGACCTCCCGCCCAAATCCGACGCCACCGCGCGCGGAGTCACCTAGTGCAG,3640 fluorescence intensity (a.u.)
12,GTGCGGCGGTGGGGTTGGTCGAGGCGGCCGAGGGCTCGTCCGGAGTCACCTAGTGCAG,3320 fluorescence intensity (a.u.)
13,AAAGCCACTTGCCATGTGTCAATCAAACTCAATATTTTCTCGGAGTCACCTAGTGCAG,4520 fluorescence intensity (a.u.)
14,CAACCATCCAAGACTACCGTGGCAGCTTCTCAGCCCAAGGCGGAGTCACCTAGTGCAG,3670 fluorescence intensity (a.u.)
15,AAGTAGCGGTGGTGGTTGTCTGGCTGACACCACCATCTGCCGGAGTCACCTAGTGCAG,6120 fluorescence intensity (a.u.)
16,CTCTCCCGCTGCCGCCGCCTCCGGCTTCCCCGTCGCCTCGCGGAGTCACCTAGTGCAG,3260 fluorescence intensity (a.u.)
17,CAAGTTGCATGCGTGTCTTCTTCCTACCATCACTTCTCTCCGGAGTCACCTAGTGCAG,5900 fluorescence intensity (a.u.)
18,TATCAAATATCCGATGTGACATGTGACATGACATCTAAAACGGAGTCACCTAGTGCAG,3500 fluorescence intensity (a.u.)
19,ATTCTGTTGAGGGATGGATGGATCGGTTTTACCATTAATGCGGAGTCACCTAGTGCAG,3710 fluorescence intensity (a.u.)
20,CGGGGCACGCCACGGGTGCACATACGTGATGCACACGTACCGGAGTCACCTAGTGCAG,5170 fluorescence intensity (a.u.)
21,TCGAGGTGAGCAGAGAGAGAGGATTGAAGAAGAAGGAGAACGGAGTCACCTAGTGCAG,35800 fluorescence intensity (a.u.)

row,Sequence,binding signal
1,GCTTGTGCCGAGCCAGCTCACGCCCAATTCATGACGCCTCCGGAGTCACCTAGTGCAG,4580 fluorescence intensity (a.u.)
2,GTGGTGGTGGTGTGTGAGCTCGGGGCTTGGGGTTTTGCGGCGGAGTCACCTAGTGCAG,3650 fluorescence intensity (a.u.)
3,AGAGAGACGTGGGGTTGTCCATGTCATGTTTCTCGTACAACGGAGTCACCTAGTGCAG,5800 fluorescence intensity (a.u.)
4,CCGTGCCCGCGCCCGCGCCGCCACATGGAGCCGAAGCCAACGGAGTCACCTAGTGCAG,3360 fluorescence intensity (a.u.)
5,ACGGGCAAAGCGGCCGCCACGTAGACGTGTACATCTTCTCCGGAGTCACCTAGTGCAG,18000 fluorescence intensity (a.u.)
6,CTGCGACGCGTCGCTGCCGTACGCGGACCGGGTGCGGGACCGGAGTCACCTAGTGCAG,4180 fluorescence intensity (a.u.)
7,ATACCTCGGCGTGATGACTCCACCGCGCGATGACTCCGCCCGGAGTCACCTAGTGCAG,4390 fluorescence intensity (a.u.)
8,GTCATATTTATTTGGATGATGTGGCATGTTCTGGTGGTGACGGAGTCACCTAGTGCAG,15700 fluorescence intensity (a.u.)
9,ACGCGTCCTTATCGGTTACTCCTGCCCATGTGGCTCCTCGCGGAGTCACCTAGTGCAG,3350 fluorescence intensity (a.u.)
10,GTGGTAGATTCTCGTCCCAAGCTTGAGGGACAAGGATTACCGGAGTCACCTAGTGCAG,23300 fluorescence intensity (a.u.)
11,ATTATTTTGTTTTGAGTTGGACTAGTCACACAAATTACCGCGGAGTCACCTAGTGCAG,3470 fluorescence intensity (a.u.)
12,GCCGGTGATTGGCGTGGCGTGGCGTGGCGTGGCGCGGTGTCGGAGTCACCTAGTGCAG,5210 fluorescence intensity (a.u.)
13,TTAACGTGTACCACTACATGCATGCAGTGACGACAGTCAGCGGAGTCACCTAGTGCAG,3150 fluorescence intensity (a.u.)
14,TCTTTATGATTGCTGCCAACTAATGTTTTCTTTCATACTACGGAGTCACCTAGTGCAG,4210 fluorescence intensity (a.u.)
15,TTTGGGCTTTTGGCTGGACGCGTCACGCGCGCGTTATTATCGGAGTCACCTAGTGCAG,5160 fluorescence intensity (a.u.)
16,GCTCCACGTACGTACGCGTGTCGCCTCGCGCCGAAGCAAGCGGAGTCACCTAGTGCAG,5100 fluorescence intensity (a.u.)
17,CTCTCTTTCGCAGAAATCCTGGGCGCCTCTCTGTCAGTTTCGGAGTCACCTAGTGCAG,3270 fluorescence intensity (a.u.)
18,CAACATATTTTCATCATGCATCGACTTTACCTTATATCCTCGGAGTCACCTAGTGCAG,3150 fluorescence intensity (a.u.)
19,CCGCGTGCTGACGACGATGCGCGGGACCGTGGGCTACCTGCGGAGTCACCTAGTGCAG,9360 fluorescence intensity (a.u.)
20,TAGCAATCTTTAGATAAGATATGTTCCATCATTCACTTAACGGAGTCACCTAGTGCAG,26800 fluorescence intensity (a.u.)
21,ACCACACGGCATCCGAAGAAGCCCACGTCCCCGTCGCGCCCGGAGTCACCTAGTGCAG,4960 fluorescence intensity (a.u.)

# Laid out differently: results already given.
row | Sequence | binding signal
14 | TCTTTATGATTGCTGCCAACTAATGTTTTCTTTCATACTACGGAGTCACCTAGTGCAG | 4210 fluorescence intensity (a.u.)
15 | TTTGGGCTTTTGGCTGGACGCGTCACGCGCGCGTTATTATCGGAGTCACCTAGTGCAG | 5160 fluorescence intensity (a.u.)

# — publication PMC7819943, “Rice protein-binding microarrays: a tool to detect cis-acting elements near promoter regions in rice”
